Results as given in PubChem BioAssay AID1347156 (National Center for Advancing Translational Sciences (NCATS), 2019).
Several values for one entry are separate records, joined by “and”; a condition that tells them apart may be missing. Identical values can stand only once. Inconclusive results, whose numbers are uncertain, are shown with a selection of clear calls. Where the call is inconclusive, the potency comes from a doubtful curve fit. Activity calls are given as the source filed them. Calls come from the whole dose curve; as a rule, active = well fitted cell-killing curve with a large enough effect; inconclusive = small, poorly fitted or top-dose-only effect; inactive = flat fitted curve, though single readings scatter.

experiment: DAPI mCherry counterscreen qHTS for Zika virus inhibitors; conditions: Vero cells, DAPI nuclear count cytotoxicity, imaging 48-72 h, infected with Zika reporter virus, MOI 1; series mostly up to 32.6 µM; note: nearly all actives have a fitted effect of over 55% in size
Text: Assay Submitters (PI): Avindra Nath, Ph.D., National Institute of Neurological Disorders and Stroke (NINDS), Bethesda, MD Radhakrishnan Padmanabhan, Ph.D., Georgetown University (GU), Washington D.C. Zika Virus causes congenital defects, including microcephaly and is associated with Guillain-Barre syndrome, eningoencephalitis and myelitis in infected adult. […] Using a target-based approach, we hope to establish a screening paradigm to uncover novel, cell-active NS2B-NS3 protease (Zika Virus) specific inhibitors from NCATS' collection of small molecules using qHTS. […] Four assay panel was created to identify potential Zika Virus inhibitors. Namely, (1) GU unlinked NS2B-NS3 AMC tagged protease qHTS, (2) GU unlinked NS2B-NS3 Rhodamine tagged protease qHTS, (3) NINDS linked NS2B-NS3 AMC tagged protease qHTS, (4) NINDS linked NS2B-NS3 Rhodamine tagged protease qHTS. Active compounds were re-acquired and re-screened to confirm inhibition. Inhibitors were further screened against various confirmatory and counterscreens in dose response format. […] A DAPI (mCherry counterscreen) which determine Vero cell cytotoxicity was used to exclude false positive compounds. […] Early Translation Branch (ETB) National Center for Advancing Translational Sciences (NCATS), Rockville, MD National Institute of Health (NIH), Bethesda, Maryland
384 well ZIKV-mCherry & mCherry DAPI counterscreen: We have developed a new orthogonal imaging assay in 384-well plate format, which uses recombinant virus ZIKV-mCherry in Vero cells. Briefly, 30 microL of Vero cells derived from a green monkey cell line, were dispensed by Multidrop Dispenser into a clear solid bottom black 384 well plate (ultracarrier, Perkin Elmer LifeSciences) at a concentration of 5,000 cells per well. The plate was incubated overnight in a CO2 incubator at 37 degrees C. Compounds were delivered as a 126 nL DMSO solution by Kalypsys pintool transfer. Following compound transfer, 10 microL of ZIKV-mCherry was added at an MOI of 1 and incubated in a CO2 incubator for 48-72 hrs at 37 degrees C. After sufficient incubation of infected cells in test plates, 8 microL of 32% PFA was dispensed into assay plates to fix cells and incubated for 20 min at room temperature. Plates were washed 3 times with PBS using BioTek EL406 microplate washer/dispenser. After washing, 30 microL of PBS with 0.01% TX-100 containing Hoechst dye was dispensed into the each well of the plates for nuclear staining. 384-well plates were imaged on an automated, widefield high content imager (INCell 2200, GE Healthcare) using a 10x/0.45 NA lens and standard DAPI (nuclear stain) and mCherry (cy5) excitation and emission filters. The TIFFs were quantitated using the canned Multi Target Analysis protocol (GE Investigator Workstation software v3.7.2). Briefly, nuclei from the DAPI channel were identified using top hat segmentation and a sensitivity setting of 96 and minimum size area of 35 microm2. A recombinant Zika viral infection was monitored in the Cy5 channel (cells) using a 2 microm collar dilation from the nuclear bitmap. mCherry objects with an average nuclear RFU intensity above 450 (3 stdev above mean negative control wells) were considered "mcherry positive" and data was analyzed by percent infection rate.
Potency is the fitted concentration of half-maximal effect.

Row | Compound | Potency
1 | CN(C)c1cc(NC(=O)CNC(C)(C)C)c(O)c2c1C[C@H]1C[C@H]3[C@H](N(C)C)C(=O)C(C(N)=O)=C(O)[C@]3(O)C(=O)C1=C2O | inconclusive: 31.6 µM [cytotoxic, partial curve, poor fit]
2 | COc1ccc(NS(=O)(=O)c2ccc(NS(=O)(=O)c3ccc4c(c3)OCCO4)cc2)cc1 | inconclusive: 15.8 µM [cytotoxic, partial curve, poor fit]
3 | Cc1ccc(C(=O)Nc2ccc(S(=O)(=O)O)c3cc(S(=O)(=O)O)cc(S(=O)(=O)O)c23)cc1NC(=O)c1cccc(NC(=O)Nc2cccc(C(=O)Nc3cc(C(=O)Nc4ccc(S(=O)(=O)O)c5cc(S(=O)(=O)O)cc(S(=O)(=O)O)c45)ccc3C)c2)c1 | inactive
4 | O=C(O)c1cc(-n2c(/C=C\c3ccc(F)cc3)nc3ccccc3c2=O)ccc1Cl | inactive
5 | O=C(Nc1ccccc1)Nc1ccc(-c2ccc(C(=O)C3CCCC3C(=O)O)cc2)cc1 (stereo not given) | inconclusive: 31.6 µM [cytotoxic, partial curve]
6 | CC1(C)CCC(CN2CCN(c3ccc(C(=O)NS(=O)(=O)c4ccc(NCC5CCOCC5)c([N+](=O)[O-])c4)c(Oc4cnc5[nH]ccc5c4)c3)CC2)=C(c2ccc(Cl)cc2)C1 | active: 5.62 µM
7 | O=C(Nc1ccc(/C=C/c2ccc(NC(=O)c3cc(S(=O)(=O)O)c4cccnc4c3O)cc2S(=O)(=O)O)c(S(=O)(=O)O)c1)c1cc(S(=O)(=O)O)c2cccnc2c1O | inconclusive: 15.8 µM [cytotoxic, partial curve]
8 | C[C@H](NC(=O)C(=O)Nc1ccccc1C(C)(C)C)C(=O)N[C@@H](CC(=O)O)C(=O)COc1c(F)c(F)cc(F)c1F | inactive
9 | O=C(O)C1(c2ccc(-c3ccc(Cl)c(Cl)c3)c(F)c2)CC1 | inconclusive: 17.8 µM [cytotoxic, partial curve, poor fit]
10 | COc1cc(C)c(C(=O)OC2C(C)OC(OC3CCC(C)C4C3C=C(C)C3/C(C)=C\CC/C(C)=C/C5(C)C=C(C(=O)O)C(C)CC56OC(=O)/C(=C(\O)C34C)C6=O)C(O)C2O)c(OC)c1 (stereo not given) | inactive
11 | O=C(O)c1cc(N(Cc2ccc(C3CCCCC3)cc2)C(=O)c2ccc(Oc3ccccc3)cc2)ccc1O | active: 35.5 µM
12 | O=S(=O)(Nc1cc(Cl)c(Oc2cnc3ccccc3c2)c(Cl)c1)c1ccc(Cl)cc1Cl | active: 12.6 µM
13 | O=c1oc2cc(O)ccc2cc1-c1nc(-c2ccc(Cl)c(Cl)c2)cs1 | inconclusive: 3.16 µM [cytotoxic, full curve]
14 | Cc1ccc(-c2nnc(Nc3ccc(Br)cc3)c3ccccc23)cc1S(=O)(=O)NCc1nc2ccccc2[nH]1 | inconclusive: 6.31 µM [cytotoxic, full curve]
15 | Cc1nc(N=Nc2cc(S(=O)(=O)O)c3cc([N+](=O)[O-])cc(S(=O)(=O)O)c3c2)c(COP(=O)(O)O)c(C=O)c1O | inactive
16 | O=C(O)c1ccc2c(ccc3nn(-c4ccc(/C=C/c5ccc(-n6nc7ccc8cc(C(=O)O)ccc8c7n6)cc5[S+](=O)([O-])[O-])c([S+](=O)([O-])[O-])c4)nc32)c1 | inconclusive: 25.1 µM [cytotoxic, single point]
17 | O=c1c(O)c(Br)ccc2c(Br)c(O)c(O)c(O)c12 | inactive
18 | O=C(O)CC1CCC(c2ccc(-c3ccc(Nc4ccc(C(F)(F)F)nc4)cn3)cc2)CC1 (stereo not given) | inconclusive: 8.91 µM [cytotoxic, full curve]
19 | O=C(O)CSc1nc2ccc(NC(=O)COc3ccc(Cl)cc3)cc2s1 | inactive
20 | Nc1cc(N)c(N=Nc2ccc(S(=O)(=O)Nc3nccs3)cc2)cc1N=Nc1ccc(S(=O)(=O)Nc2nccs2)cc1 | inactive

Row | Compound | Potency
21 | Nc1ncnc2c([C@@H]3N[C@H](CO)[C@@H](O)[C@H]3O)c[nH]c12 | inactive
22 | CC1(C)CC=C(c2cnc3ccccc3c2)c2cc(C(=O)Nc3ccc(C(=O)O)cc3)ccc21 | inconclusive: 31.6 µM [cytotoxic, partial curve]
23 | CCC(CC)(CC(=O)Nc1cccc(/C=C/c2nc(C3CCC3)cs2)c1)C(=O)O | inconclusive: 17.8 µM [cytotoxic, partial curve, poor fit]
24 | CC1CCC(C(=O)N(c2cc(C#CC(C)(C)C)sc2C(=O)O)C2CCC(O)CC2)CC1 (stereo not given) | active: 25.1 µM
25 | CCCCc1nn(-c2ccccc2C(F)(F)F)c(=O)n1Cc1ccc(-c2ccccc2S(=O)(=O)NC(=O)c2sccc2C)cc1 | inconclusive: 35.5 µM [cytotoxic, partial curve, poor fit]
26 | CN1CCN(C(=O)CCN2C(=O)/C(=C\c3ccccc3F)SC2=S)CC1 | inconclusive: 28.2 µM [cytotoxic, full curve]
27 | COC(=O)c1ccc(NC(=O)CSc2ncc3c(n2)-c2cc(Cl)ccc2N(Cc2ccccc2)S3(=O)=O)cc1 | inconclusive: 39.8 µM [cytotoxic, partial curve]
28 | O=C(Nc1cccc(C(=O)OCc2cc(=O)n3nc(C4CC4)sc3n2)c1)c1cccc(Cl)c1 | inactive
29 | Clc1cc(OCc2nnc3sc(Cc4ccccc4)nn23)c(Cl)cc1OCc1nnc2sc(Cc3ccccc3)nn12 | inconclusive: 12.6 µM [cytotoxic, full curve, poor fit]
30 | CC(Oc1ccccc1)C(=O)Nc1ccc(C(=O)OCc2cc(=O)n3nc(C4CC4)sc3n2)cc1 (stereo not given) | inconclusive: 31.6 µM [cytotoxic, partial curve]
31 | CC(C)c1ccc(NC(=O)c2ccc3oc(=O)c(S(=O)(=O)c4ccc(F)cc4)cc3c2)cc1 | inconclusive: 35.5 µM [cytotoxic, partial curve]
32 | N#CC(c1ccc(Cl)cc1)c1c(Cl)cc(-n2ncc(=O)[nH]c2=O)cc1Cl (stereo not given) | active: 25.1 µM
33 | Cc1nc(N=Nc2ccc(S(=O)(=O)O)cc2S(=O)(=O)O)c(COP(=O)(O)O)c(C=O)c1O | inactive
34 | O=c1c(O)cc(C2Oc3cc(O)cc(O)c3CC2O)cc2c(C3Oc4cc(O)cc(O)c4CC3O)cc(O)c(O)c12 (stereo not given) | inconclusive: 31.6 µM [cytotoxic, partial curve]
35 | CC1c2cccc(O)c2C(O)=C2C(=O)C3(O)C(O)=C(C(N)=O)C(=O)C(N(C)C)C3C(O)C21 (stereo not given) | inconclusive: 31.6 µM [cytotoxic, partial curve]
36 | O=c1c(O)c(-c2ccc(O)c(O)c2)oc2cc(O)ccc12 | inactive
37 | COc1ccc(C(=O)Nc2ccc(C(=O)OCc3cc(=O)n4nc(C(C)C)sc4n3)cc2)cc1 | inactive
38 | COc1cc(Nc2nc3ccccc3nc2NS(=O)(=O)c2cccc(NC(=O)c3ccc(C)c(OC)c3)c2)cc(OC)c1 | active: 4.47 µM
39 | O=C(Nc1cc(C(=O)Nc2ccc(S(=O)(=O)O)cc2S(=O)(=O)O)cc(C(=O)Nc2ccc(S(=O)(=O)O)cc2S(=O)(=O)O)c1)Nc1cc(C(=O)Nc2ccc(S(=O)(=O)O)cc2S(=O)(=O)O)cc(C(=O)Nc2ccc(S(=O)(=O)O)cc2S(=O)(=O)O)c1 | inconclusive: 25.1 µM [cytotoxic, partial curve, poor fit] and inconclusive: 15.8 µM [cytotoxic, partial curve, poor fit]
40 | N#CC1C(=O)Nc2scc(-c3ccc(-c4ccccc4O)cc3)c2C1=O (stereo not given) | active: 8.91 µM
